Measurements published in paper PMC5089723, “Structural Insights into the Nucleotide-Binding Domains of the P1B-type ATPases HMA6 and HMA8 from Arabidopsis thaliana” (PLoS ONE, 2016).
Results are given in words; binding and its absence hold for the method and conditions named. One block for each binder: values may come before it.

How the values were obtained:
Assay in all cases: SEC; HiLoad 26/60 Superdex 75; 20 mM Mops pH 7.0, 150 mM NaCl (HMA8^N) or 20 mM potassium phosphate pH 7.0, 150 mM KCl (HMA6^N-AA); tags cleaved; both purified
[1] = biological target: nucleotide-binding domain of HMA8 (HMA8^N, residues 557-689) (Arabidopsis thaliana) (UniProt B9DFX7)
[2] = biological target: nucleotide-binding domain of HMA6 (HMA6^N, residues 607-734) (Arabidopsis thaliana) (UniProt Q9SZC9)
[3] = biological target: HMA6^N-AA (nucleotide-binding domain of HMA6, residues 607-734, double mutant EE709AA) (Arabidopsis thaliana) (UniProt Q9SZC9)

binding [1]: no binding
B1: nucleotide-binding domain of HMA8 (HMA8^N, residues 557-689) (domain or fragment, UniProt B9DFX7 557-689)
chain: GASRPVVSGVASLGYEEQEVLKMAAAVEKTATHPIAKAIVNEAESLNLKTPETRGQLTEPGFGTLAEIDGRFVAVGSLEWVSDRFLKKNDSSDMVKLESLLDHKLSNTSSTSRYSKTVVYVGREGEGIIGAIAISD

binding [2]: no binding
B2: nucleotide-binding domain of HMA6 (HMA6^N, residues 607-734) (domain or fragment, UniProt Q9SZC9 607-734)
chain: GASHPVVTEVIIPENPRHNLNDTWSEVEVLMLAAAVESNTTHPVGKAIVKAARARNCQTMKAEDGTFTEEPGSGAVAIVNNKRVTVGTLEWVKRHGATGNSLLALEEHEINNQSVVYIGVDNTLAAVIRFE

binding [3]: no binding
B3: HMA6^N-AA (nucleotide-binding domain of HMA6, residues 607-734, double mutant EE709AA) (domain or fragment, UniProt Q9SZC9 607-734)
chain: GASHPVVTEVIIPENPRHNLNDTWSEVEVLMLAAAVESNTTHPVGKAIVKAARARNCQTMKAEDGTFTEEPGSGAVAIVNNKRVTVGTLEWVKRHGATGNSLLALAAHEINNQSVVYIGVDNTLAAVIRFE
modifications: SeMet-substituted
